Laboratory results from article doi:10.1101/2025.03.25.645379.
No constants are given. Whether binding was seen depends on the method and setting. Binding seen in cells or lysates may run through a third protein. Binding can be weak; no strength is given.

Legend:
Experiment in all cases: split reporter
[1] = molecular target: PacL2 (split-GFP fusion) (M. tuberculosis H37Rv) (UniProt P9WLP5)
[2] = molecular target: metal binding domain (MBD) of CtpC (split-GFP fusion) (M. tuberculosis H37Rv) (UniProt P9WPT5)
[3] = molecular target: metal binding domain (MBD) of CtpV (split-GFP fusion) (M. tuberculosis H37Rv) (UniProt P9WPS2)
[4] = molecular target: predicted metal binding domain (MBD) of CtpG (split-GFP fusion) (M. tuberculosis H37Rv) (UniProt P9WPS7)

Measured: binding

PacL1 (split-GFP fusion) (from UniProt P96874)
binds: all assays above

PacL2 (split-GFP fusion) (from UniProt P9WLP5)
binds: [2] | [3] | [4]
